# Test results: patent EP0920857B1, “Oral composition for the treatment of halitosis” (DENTAID, S.A., priority 1997, dated 1999)
# Experiments:
# Test in all cases: minimum inhibitory concentration (MIC), method of diffusion in agar
# Format in all cases: cell-based
# P.gingivalis = tested on: P.gingivalis
# Text: (§1) The anti-microbial activity of a certain number of active ingredients was obtained by study of the minimum inhibitory concentrations (MIC) of the respective agents (by the method of diffusion in agar) against bacteria representing periodontal disease.
# A.actinomycetemcomitans = tested on: A.actinomycetemcomitans
# Text: as §1
# P.intermedia = tested on: P.intermedia
# Text: as §1
smiles,measurement,setting,value
"CCCCCCCCCCCCCCCC[n+]1ccccc1 [CPC, cetylpyridinium chloride]",Minimum inhibitory concentration (%),P.gingivalis,0.0006%
same,Minimum inhibitory concentration,A.actinomycetemcomitans,>0.02%
same,"Minimum inhibitory concentration (MIC, % concentration)",P.intermedia,0.0003%
